In PMC2861670:
Read-outs that look alike come from different tables or passages of the source. These are yes or no findings as the source states them, for the method shown. In cells and extracts the contact can be indirect. Some entries that bind do so weakly or less than the wild type.

Sequences of proteins named here, by UniProt entry; tags and fusion partners are left off. Residues count along the entry.
UniProt Q8VI56, residues 21-1905: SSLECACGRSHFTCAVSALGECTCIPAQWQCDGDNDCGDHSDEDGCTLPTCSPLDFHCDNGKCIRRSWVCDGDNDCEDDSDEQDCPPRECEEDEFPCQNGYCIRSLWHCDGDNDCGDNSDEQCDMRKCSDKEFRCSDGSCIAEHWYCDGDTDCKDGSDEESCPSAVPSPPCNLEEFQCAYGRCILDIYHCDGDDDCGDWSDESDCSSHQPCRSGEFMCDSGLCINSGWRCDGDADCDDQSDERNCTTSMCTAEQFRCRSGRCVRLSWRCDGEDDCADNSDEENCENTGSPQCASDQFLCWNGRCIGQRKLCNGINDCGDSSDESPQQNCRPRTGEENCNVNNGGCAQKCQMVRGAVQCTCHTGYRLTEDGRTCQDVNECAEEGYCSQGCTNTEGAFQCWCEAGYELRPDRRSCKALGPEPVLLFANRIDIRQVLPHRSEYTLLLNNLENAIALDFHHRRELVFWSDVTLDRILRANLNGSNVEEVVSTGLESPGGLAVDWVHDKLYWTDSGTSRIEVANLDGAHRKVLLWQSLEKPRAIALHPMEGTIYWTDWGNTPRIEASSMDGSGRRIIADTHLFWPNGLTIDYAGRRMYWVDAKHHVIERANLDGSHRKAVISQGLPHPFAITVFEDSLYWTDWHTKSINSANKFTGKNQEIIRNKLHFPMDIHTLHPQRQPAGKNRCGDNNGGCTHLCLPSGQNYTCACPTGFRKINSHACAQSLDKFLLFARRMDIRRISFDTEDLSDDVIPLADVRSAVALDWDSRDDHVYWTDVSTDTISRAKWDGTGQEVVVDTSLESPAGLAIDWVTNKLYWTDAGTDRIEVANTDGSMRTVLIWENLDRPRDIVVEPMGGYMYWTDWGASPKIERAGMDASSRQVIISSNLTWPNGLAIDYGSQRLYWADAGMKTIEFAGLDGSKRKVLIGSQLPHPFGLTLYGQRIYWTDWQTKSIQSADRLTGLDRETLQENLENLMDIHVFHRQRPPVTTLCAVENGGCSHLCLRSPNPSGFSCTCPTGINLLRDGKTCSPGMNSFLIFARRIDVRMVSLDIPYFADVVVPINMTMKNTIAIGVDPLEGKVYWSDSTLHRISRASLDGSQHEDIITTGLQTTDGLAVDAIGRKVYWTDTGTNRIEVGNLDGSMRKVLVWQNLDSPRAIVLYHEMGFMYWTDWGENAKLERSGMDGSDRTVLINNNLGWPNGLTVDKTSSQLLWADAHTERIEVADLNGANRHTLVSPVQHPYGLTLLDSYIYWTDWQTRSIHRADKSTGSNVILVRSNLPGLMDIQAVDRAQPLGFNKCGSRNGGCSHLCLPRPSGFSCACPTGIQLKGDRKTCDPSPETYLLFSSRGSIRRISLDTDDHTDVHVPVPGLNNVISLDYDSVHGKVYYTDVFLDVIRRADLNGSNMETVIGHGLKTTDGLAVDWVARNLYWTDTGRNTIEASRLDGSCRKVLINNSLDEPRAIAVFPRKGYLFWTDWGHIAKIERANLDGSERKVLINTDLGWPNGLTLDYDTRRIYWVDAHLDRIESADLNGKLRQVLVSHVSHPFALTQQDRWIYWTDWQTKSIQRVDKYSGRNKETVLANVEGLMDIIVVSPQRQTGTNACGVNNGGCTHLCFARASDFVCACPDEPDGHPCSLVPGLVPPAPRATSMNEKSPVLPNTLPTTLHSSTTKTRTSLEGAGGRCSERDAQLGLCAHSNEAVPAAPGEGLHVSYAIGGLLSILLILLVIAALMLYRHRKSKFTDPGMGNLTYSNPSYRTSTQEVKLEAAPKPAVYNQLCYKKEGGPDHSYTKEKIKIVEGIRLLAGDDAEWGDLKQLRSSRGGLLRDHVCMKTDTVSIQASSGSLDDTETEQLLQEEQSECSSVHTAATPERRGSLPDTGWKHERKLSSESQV
UniProt Q8BFU0, residues 24-243: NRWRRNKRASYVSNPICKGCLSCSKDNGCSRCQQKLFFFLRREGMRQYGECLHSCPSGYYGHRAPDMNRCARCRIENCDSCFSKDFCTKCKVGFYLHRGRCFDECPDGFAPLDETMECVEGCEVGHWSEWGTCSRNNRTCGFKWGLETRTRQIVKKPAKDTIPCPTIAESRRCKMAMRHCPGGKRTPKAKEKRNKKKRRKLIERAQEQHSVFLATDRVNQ
UniProt Q9CQN4, residues 24-206: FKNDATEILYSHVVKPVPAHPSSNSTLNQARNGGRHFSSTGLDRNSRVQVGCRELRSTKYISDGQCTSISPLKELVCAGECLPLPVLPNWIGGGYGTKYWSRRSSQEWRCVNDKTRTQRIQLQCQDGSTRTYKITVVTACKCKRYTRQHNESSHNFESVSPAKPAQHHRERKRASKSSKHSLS

Legend:
Lrp4 [1] = biological target: Lrp4 (UniProt Q8VI56); assay: co-IP; co-immunoprecipitation 'in vitro' of transfected proteins; transfection confirmed by immunoblot; bait, antibodies and conditions not stated
Lrp4 [2] = biological target: Lrp4 (UniProt Q8VI56); assay: as above; remark: listed apart in the source

## R-spondin 2 (from UniProt Q8BFU0 24-243) (ligand)
Lrp4 [1]
  binding: no binding

## Wise (from UniProt Q9CQN4 24-206) (ligand)
Lrp4 [1]
  binding: binds

B1: Gremlin1 (ligand, UniProt O70326 25-184)
chain: KKKGSQGAIPPPDKAQHNDSEQTQSPPQPGSRTRGRGQGRGTAMPGEEVLESSQEALHVTERKYLKRDWCKTQPLKQTIHEEGCNSRTIINRFCYGQCNSFYIPRHIRKEEGSFQSCSFCKPKKFTTMMVTLNCPELQPPTKKKRVTRVKQCRCISIDLD
Lrp4 [2]
  binding: binds

B2: Dkk1 (ligand, UniProt O54908 32-272)
chain: TLNSVLINSNAIKNLPPPLGGAGGQPGSAVSVAPGVLYEGGNKYQTLDNYQPYPCAEDEECGSDEYCSSPSRGAAGVGGVQICLACRKRRKRCMRHAMCCPGNYCKNGICMPSDHSHFPRGEIEESIIENLGNDHNAAAGDGYPRRTTLTSKIYHTKGQEGSVCLRSSDCAAGLCCARHFWSKICKPVLKEGQVCTKHKRKGSHGLEIFQRCYCGEGLACRIQKDHHQASNSSRLHTCQRH
Lrp4 [2]
  binding: binds
